Measured values: paper PMC12431657, “Discovery and mechanistic insights of dibenzoylmethane as a broad spectrum inhibitor of coronavirus” (PLOS Pathogens, 2025)
Counter-ions that a name gives are not always drawn. Like-named read-outs stand apart in the source and are kept apart here. Among all 3,300 compounds or so, about 95 (3%) showed an effect of 50% or more. This is one part of the list.

Test system: HCoV-229E
Design: species or system Huh-7; HTS, protection from HCoV-229E induced cell death, luminescent cell viability (CellCounting-Lite 2.0), inhibition rate
Details: 24 h post infection, 1 h compound pre-incubation, 10 µM, inhibitor

SMILES | 229E Inhibition rate [%] | 229E Inhibition rate (229E Inhibition rate, 24 h) [%]
COc1ccccc1/C=C/C(=O)O [2-Methoxycinnamic acid] | 7.5 | 
NC(Cc1c[nH]c2ccccc12)C(=O)O (racemic) [DL-Tryptophan] | 15.7 | 
CC(C)=CC[C@@H](OC(=O)C(C)C)C1=CC(=O)c2c(O)ccc(O)c2C1=O [Isobutylshikonin] | 10.3 | 
COc1c(O)cc2oc(-c3ccc(O)c(O)c3)cc(=O)c2c1O [Nepetin] | 40.3 | 
C[C@H]1[C@H](C)CC[C@]2(C(=O)O[C@@H]3O[C@H](CO[C@@H]4O[C@H](CO)[C@@H](O[C@@H]5O[C@H](C)[C@H](O)[C@@H](O)[C@H]5O)[C@H](O)[C@H]4O)[C@@H](O)[C@H](O)[C@H]3O)CC[C@]3(C)C(=CC[C@@H]4[C@@]5(C)C[C@@H](O)[C@H](O)[C@@](C)(CO)[C@@H]5CC[C@]43C)[C@H]12 [Asiaticoside] | 8.4 | 
C=C1CC/C=C(\C)CC[C@@H]2[C@@H]1CC2(C)C [β-Caryophyllene] | 27.2 | 
CCCCCCCCCC[C@H](C(=O)O)[C@]1(C(=O)O)CCC(=O)O1 [Spiculisporic acid] | 11.6 | 
CC(C)CCC[C@@H](C)[C@H]1CC[C@H]2C3=CC=C4C[C@@H](O)CC[C@]4(C)[C@H]3CC[C@]12C [7-Dehydrocholesterol] | 15.2 | 
O=C(O)CNCC(=O)O [Iminodiacetic acid] | 6.4 | 
Nc1ccccc1C(=O)C[C@H](N)C(=O)O [L-Kynurenine] |  | 40.2
CC(C)(O[C@@H]1O[C@H](CO)[C@@H](O)[C@H](O)[C@H]1O)[C@@H]1CC[C@](C)([C@H]2[C@@H](O)C[C@@]3(C)[C@@H]4C[C@H](O)[C@H]5C(C)(C)[C@@H](O[C@@H]6OC[C@@H](O)[C@H](O)[C@H]6O)CC[C@@]56C[C@@]46CC[C@]23C)O1 [Isoastragaloside IV] | 11.5 | 
C[C@@H]1O[C@@H](O[C@@H]2C(=O)c3c(O)cc(O)cc3O[C@H]2c2cc(O)cc(O)c2)[C@H](O)[C@H](O)[C@H]1O [Neosmitilbin] | 11.7 | 
C[C@@H]1C(=O)O[C@H]2C[C@]34[C@@H]5OC(=O)[C@]3(O[C@@H]3OC(=O)[C@H](O)[C@@]34[C@H](C(C)(C)C)[C@H]5O)[C@]21O [Ginkgolide J] | 0 | 
O=C(O)C1=CO[C@@H](O[C@@H]2O[C@H](CO)[C@@H](O)[C@H](O)[C@H]2O)[C@@H]2C(CO)=C[C@H](O)[C@H]12 [Deacetylasperulosidic Acid] | 20.1 | 
Cc1cc(O)cc(O[C@@H]2O[C@H](CO)[C@@H](O)[C@H](O)[C@H]2O)c1 [Orcinol glucoside] | 0 | 
NC[C@H]1O[C@H](O[C@H]2[C@H](O)[C@@H](O[C@H]3O[C@H](CO)[C@@H](O)[C@H](N)[C@H]3O)[C@H](N)C[C@@H]2N)[C@H](N)C[C@@H]1O [Tobramycin] | 12 | 
O=C(/C=C/c1ccc(O)c(O)c1)OC1(C(=O)O)C[C@@H](O)C(O)[C@H](O)C1 (stereo partly shown) [1-Caffeoylquinic acid] | 6.7 | 
CSC[C@H]1O[C@@H](n2cnc3c(N)ncnc32)[C@H](O)[C@@H]1O [5'-Methylthioadenosine] | 14.6 | 
O=c1ccoc2cc(O)cc(O)c12 [5,7-Dihydroxychromone] | 0 | 
c1c2c(cc3c1OCO3)-c1cc3cc4c(cc3c[n+]1CC2)OCO4 [Pseudocoptisine (chloride)] | 8.5 | 
C=C[C@@H]1C2=CCOC(=O)C2=CO[C@H]1O[C@@H]1O[C@H](CO)[C@@H](O)[C@H](O)[C@H]1O [Gentiopicroside] | 10.3 | 

SMILES | 229E Inhibition rate [%] | 229E Inhibition rate (229E Inhibition rate, 24 h) [%]
N[C@H]1CONC1=O [L-Cycloserine] | 39.8 | 
COc1cc(OC)c2ccc(=O)oc2c1 [Citropten] | 25.4 | 
COC(=O)C1=COC(O[C@@H]2O[C@H](CO)[C@@H](O)[C@H](O)[C@H]2O)/C(=C/C(=O)O)C1CC(=O)OCCc1ccc(O)c(O)c1 (stereo partly shown) [Oleuropeinic acid] | 10 | 
COC(=O)C1=CO[C@@H](O[C@@H]2O[C@H](CO)[C@@H](O)[C@H](O)[C@H]2O)[C@H]2[C@@H]1C(=O)C[C@@H]2C [Verbenalin] | 40.7 | 
C[C@@H]1O[C@@H](O[C@H]2CC[C@]3(C=O)[C@H]4CC[C@]5(C)[C@@H](C6=CC(=O)OC6)CC[C@]5(O)[C@@H]4CC[C@]3(O)C2)[C@H](O)[C@H](O)[C@H]1O [Convallatoxin] | 39.7 | 
COc1cccc(C(=O)O)c1 [3-Methoxybenzoic acid] | 5.8 | 
COc1cc(C=O)cc(OC)c1O [Syringaldehyde] | 17.5 | 
O=c1c(O)c(-c2ccc(O)cc2)oc2cc(O)cc(O)c12 [Kaempferol] | 31.8 | 
O=c1c2c3c(ccc2cc2n1CCc1cc4c(cc1-2)OCO4)OCO3 [8-Oxocoptisine] | 18.1 | 
COC(=O)C1=CO[C@@H](O)[C@@H]2C(CO)=CC[C@H]12 [Genipin] | 26.3 | 
C=CCc1ccc(O)c(-c2ccc(OC)c(CC=C)c2)c1 [4-O-Methyl honokiol] | 41.3 | 
CN[C@@H]1[C@@H](O[C@H]2O[C@H](CO)[C@@H](N)[C@H](O)[C@H]2O)O[C@H]2C[C@@H](N)[C@@H](O[C@H]3[C@H](O)[C@@H](O)[C@H](N)C[C@@H]3N)O[C@@H]2[C@@H]1O [Apramycin (sulfate)] | 10.5 | 
CCCCC/C=C/C=C/C=O [trans,trans-2,4-Decadienal] | 30.7 | 
O=C(O)c1c(O)cc(O)cc1O [2,4,6-Trihydroxybenzoic acid] | 9.3 | 
O=C(OC[C@H]1O[C@@H](OC(=O)c2cc(O)c(O)c(O)c2)[C@H](OC(=O)c2cc(O)c(O)c(O)c2)[C@@H](OC(=O)c2cc(O)c(O)c(O)c2)[C@@H]1OC(=O)c1cc(O)c(O)c(O)c1)c1cc(O)c(O)c(O)c1 [Pentagalloylglucose] | 6.3 | 
CC(C)=CCC1=C(O)C(=O)c2ccccc2C1=O [Lapachol] | 54.4 | 
Cc1c(O)c(C)c2c(c1O)C(=O)C[C@@H](c1ccc(O)cc1)O2 [Farrerol] | 0 | 
CC(=O)O[C@@H]1[C@H]2[C@H]3C[C@H]4C5=Nc6ccccc6[C@]51C[C@@H]2N4[C@H](C)C3C=O (stereo partly shown) [Perakine] | 5.1 | 
C=C(CC(=O)O)C(=O)O [Itaconic acid] | 11.7 | 
COc1cc2c(cc1O)CCN1Cc3c(ccc(OC)c3OC)C[C@@H]21 [Corypalmine] | 8.4 | 
O=C(CO)[C@@H](O)[C@H](O)[C@H](O)CO [Fructose] |  | 8

SMILES | 229E Inhibition rate [%] | 229E Inhibition rate (229E Inhibition rate, 24 h) [%]
C=C1C(=O)O[C@@]23[C@H]1CC[C@@H](C)[C@@H]2CC[C@@]1(C)O[C@@H]31 [Arteannuin B] | 0 | 
CN(C)CCc1ccc(O)cc1 [Hordenine] | 25.2 | 
O=c1cc(-c2ccccc2)oc2ccccc12 [Flavone] | 48.9 | 
COc1cc(O)c2c(=O)c(OC)c(-c3ccc(OC)c(OC)c3)oc2c1 [Retusin] | 27.1 | 
O=c1ccn([C@@H]2O[C@H](COP(=O)(O)OP(=O)(O)O)[C@@H](O)[C@H]2O)c(=O)[nH]1 [Uridine-5'-diphosphate disodium salt] | 11.3 | 
CC1(C)CC[C@]2(C(=O)O)CC[C@]3(C)C(=CC[C@@H]4[C@@]5(C)C[C@@H](O)[C@H](O)[C@@](C)(CO)[C@@H]5CC[C@]43C)[C@@H]2[C@@H]1O [Arjungenin] | 25.1 | 
Nc1ncnc2c1ncn2[C@@H]1O[C@H](COP(=O)(O)OP(=O)(O)OP(=O)(O)O)[C@@H](O)[C@H]1O [ATP (disodium trihydrate)] |  | 8.4
CC(C(O)c1ccc(O)cc1)N1CCC(Cc2ccccc2)CC1 (stereo not shown) [Ifenprodil (tartrate)] | 39.7 | 
CC(=O)c1c(C)cc2cccc(O)c2c1O [Nepodin] | 10.6 | 
C[C@@H]1C/C=C/C=C/C=C/C=C/[C@H](O[C@@H]2O[C@H](C)[C@@H](O)[C@H](N)[C@@H]2O)C[C@@H]2O[C@](O)(C[C@@H](O)C[C@H]3O[C@@H]3/C=C/C(=O)O1)C[C@H](O)[C@H]2C(=O)O [Natamycin] | 32.1 | 
CC(C)(O)[C@@H]1CC[C@](C)([C@H]2[C@@H](O)C[C@@]3(C)[C@@H]4C[C@H](O)[C@H]5C(C)(C)[C@@H](O)CC[C@@]56C[C@@]46CC[C@]23C)O1 [Cycloastragenol] | 8.6 | 
CC(C)=CCc1c(O)cc(O)c2c(=O)cc(-c3ccc(O)cc3)oc12 [Licoflavone C] | 28.1 | 
COc1cc(CNC(=O)CCCC/C=C/C(C)C)ccc1O [Capsaicin] | 13.5 | 
COc1c(/C=C/C(=O)c2ccc(O)cc2)ccc(O)c1CC=C(C)C [Licochalcone C] | 5 | 
CC=C1[C@@H]2C=C(C)C[C@@]1(N)c1ccc(=O)[nH]c1C2 (racemic) [(±)-Huperzine A] | 23 | 
CC(O)(CCO)CC(=O)O (stereo not shown) [Mevalonic acid (lithium salt)] | 0 | 
O=C(O)[C@@H]1[C@H]2C[C@H]3c4[nH]c5ccccc5c4CCN3C[C@@H]2CC[C@@H]1O [Yohimbic acid] | 7.6 | 
C=C[C@](C)(O)CC[C@@H]1[C@@]2(C)CCCC(C)(C)[C@@H]2CC[C@@]1(C)O [Sclareol] | 19.3 | 
O=c1cc(-c2ccc(O)c(O)c2)oc2cc(O[C@@H]3O[C@H](CO)[C@@H](O)[C@H](O)[C@H]3O)c(O)c(O)c12 [6-Hydroxyluteolin 7-glucoside] | 5.1 | 

Entries of single compounds, quoted from the list:
CCCCCCCCCC[C@H](C(=O)O)[C@]1(C(=O)O)CCC(=O)O1 [Spiculisporic acid] in the list: 229E Inhibition rate [%]: 11.6
C=C[C@](C)(O)CC[C@@H]1[C@@]2(C)CCCC(C)(C)[C@@H]2CC[C@@]1(C)O [Sclareol] in the list: 229E Inhibition rate [%]: 19.3
